In patent publication US9238036B2, “Pharmaceutical uses of lanosta-8,24-dien-3-ols” (priority 2008, dated 2016):
At least one compound was matched to its structure with a doubt left.

Test system: mice
Assay: Inflammatory nociception induced by carragenan, Von Frey filament
Assay type: in vivo
Settings: acute; euphol 30 μg/kg oral 1 h before, dexamethasone 0.5 mg/kg s.c. 4 h before carragenan 300 μg/paw; 0.6 g Von Frey; FIGS. 3A, 3B
Description: In all examples that follow, 20-30 g male mice were kept in filtered-air ventilated cages, with controlled temperature (22±2° C.) and humidity (50-60%), 12 h light/12 h dark cycles, with free access to water and food. The animals remained in the lab for an adaptation period of at least 1 hour before the pharmacological tests, held between 8:00 and 17:00 h.
The animals' nociceptive mechanical threshold was evaluated as the response frequency of paw withdrawal after ten applications of a Von Frey filament (VHF, Stoelting, Chicago, USA). […] The Von Frey filament was applied to the right hind paw, watching the criteria of (1) application perpendicular to the plantar surface with enough pressure to bend the filament, so as to ensure total pressure; (2) the animals were evaluated when all four paws were accommodated on the wire mesh; (3) a paw withdrawal response was considered when the animal removed the paw entirely from the wire mesh; (4) each animal was stimulated 10 consecutive times, with 1 second duration each stimulation; (5) each paw withdrawal was considered as 10% of a response, with 10 withdrawals corresponding to 100% response. […]
The animals were treated orally with euphol (30 μg/kg) one hour before the carragenan injection. […] Hypernociception was evaluated hourly during 8 hours with a 0.6 g Von Frey filament, as well as after 24 and 48 hours after carragenan injection.

`C[C@@H]1C[C@H]2[C@@H]3CCC4=CC(=O)C=C[C@]4(C)[C@@]3(F)[C@@H](O)C[C@]2(C)[C@@]1(O)C(=O)CO` [dexamethasone, reference compound] was tested, and the “inflammatory mechanical hypernociception induced by carragenan (frequency of response, AUC)” value was “reduction of nociceptive response”.
